Our source for the binding values is article PMC6281677.

The experiment has as its target …-… 2 (FLS2) receptor, GFP-tagged (Arabidopsis thaliana) (UniProt Q9FL28). Put plainly: co-IP; anti-GFP beads (Chromotek) on total protein of N. benthamiana leaves transiently co-expressing the GFP-tagged FLS2 protein and the tagged partner; leaves treated with MgCl2 or flg22 (1 uM, 10 min in the legends; 5 uM, 15 min in the methods); extraction buffer 50 mM HEPES pH 7.5, 1 mM EDTA, 0.5% Triton X-100, 1 mM DTT; on ice 30 min; blots with anti-myc, anti-HA, anti-GFP; for FLS2 with BIK1 also with SUMO1-HA co-expressed, with or without Desi3a-HA, in the presence of flg22.

These are yes or no findings as the source states them, for the method shown. In cells and extracts the contact can be indirect. Some binding calls cover weakened binding; strength is not graded here. Where a sequence is shown, tags or fusion partners need not be part of it.

B1: SUMO E2 conjugating enzyme SCE1, HA-tagged (enzyme, UniProt Q42551 1-160)
chain: MASGIARGRLAEERKSWRKNHPHGFVAKPETGQDGTVNLMVWHCTIPGKAGTDWEGGFFPLTMHFSEDYPSKPPKCKFPQGFFHPNVYPSGTVCLSILNEDYGWRPAITVKQILVGIQDLLDTPNPADPAQTDGYHLFCQDPVEYKKRVKLQSKQYPALV
As for B1, the binding entry was “binds”.
